The chains behind the UniProt entries cited, without tags or fusion partners.
UniProt P27695, whole entry, looked up: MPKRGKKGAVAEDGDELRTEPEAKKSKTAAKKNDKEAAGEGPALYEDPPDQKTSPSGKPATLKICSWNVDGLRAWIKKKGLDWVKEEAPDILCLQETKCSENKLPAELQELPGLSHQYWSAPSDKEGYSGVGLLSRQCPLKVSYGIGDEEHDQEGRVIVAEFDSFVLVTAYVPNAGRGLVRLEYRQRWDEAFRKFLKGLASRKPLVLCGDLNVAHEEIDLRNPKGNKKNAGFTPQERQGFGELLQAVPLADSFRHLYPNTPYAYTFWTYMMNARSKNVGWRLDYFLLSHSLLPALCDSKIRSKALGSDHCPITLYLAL

About 1,200 (0.34%) of roughly 350,000 compounds were called active. The shares of active, inactive and inconclusive entries below differ from those in the screen. Calls follow the shape of the dose curve; as a rule, active = well fitted inhibition curve with a large enough effect; inconclusive = small, poorly fitted or top-dose-only effect; inactive = no such curve, though single readings can be large or run the other way. Where the call is inconclusive, the potency comes from a doubtful curve fit.
What follows are molecules tested against DNA repair nuclease/redox regulator APEX1 (Homo sapiens) (UniProt P27695) (assay: qHTS Assay for Inhibitors of the Human Apurinic/apyrimidinic Endonuclease 1 (APE1)). Details: recombinant APE1, TAMRA/BHQ-2 abasic DNA cleavage fluorescence; series mostly up to 65.8 µM.
Outline: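 Substrate: short duplex with […] THF abasic site, 5'-TAMRA and 3'-BHQ-2, 50 nM final. APE1 at 0.75 nM, preincubated 15 min RT with compound. Fluorescence increase from first to third read measured activity.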
With `COCCCNC(=O)c1ccc(N2CCOCC2)c(NS(=O)(=O)c2ccc(OC)cc2)c1` the Potency was inconclusive: 25.1 µM [inhibitor, single point]. In the case of `Cc1oc(C(=O)O)cc1COc1cccc2cccnc12`, the Potency is reported as inconclusive: 25.1 µM [inhibitor, partial curve]. `C/C(CCN1CCCCc2nc(C)c(C)cc21)=N\OC[C@@H](O)[C@@H]1O[C@@H]2OC(C)(C)O[C@@H]2[C@H]1O` was tested, and the Potency was inconclusive: 3.98 µM [inhibitor, single point]. With `COc1ccc(C(=O)NCc2nnc(SCC(=O)N3CCc4ccccc43)n2CCc2ccccc2)cc1` the Potency was inconclusive: 44.7 µM [inhibitor, single point]. `O=C(N/N=C/c1ccc2c(c1)OCO2)c1cc2ccccc2o1` was tested, and the Potency was inconclusive: 35.5 µM [inhibitor, single point]. `CCN(CC)C(C(=O)Nc1ccc2c(c1)OCO2)c1ccccc1` (centres undefined) was tested, and the Potency was inconclusive: 3.55 µM [inhibitor, single point]. For `CSCCOC(=O)COc1ccc(/C=N/NC(=O)c2nn(C)cc2Cl)cc1`, the Potency was inconclusive: 5.01 µM [inhibitor, single point]. In the case of `CC1=C(C(=O)OC(C)C)C(c2cccnc2)n2ncnc2N1` (centres undefined), the Potency is reported as inconclusive: 22.4 µM [inhibitor, single point]. With `O=C(ONC1=NCCCCC1)c1cccc([N+](=O)[O-])c1` the Potency was “inactive”. `O=C(O)c1ccc(NC(=O)C2CC=CCC2C(=O)O)cc1` (centres undefined) was tested, and the Potency was inconclusive: 39.8 µM [inhibitor, partial curve]. In the case of `COc1ccc(OC)c(NC2=NC3(CCCC3)N=C(N)N2)c1`, the Potency is reported as inconclusive: 56.2 µM [inhibitor, partial curve, poor fit]. For `CC1Cc2c(-c3ccccc3)nc3c(c2CO1)CN(CCOc1ccccc1)CC3` (centres undefined), the Potency was inconclusive: 3.16 µM [inhibitor, single point]. For `COc1ccc(CCNC(=O)COC(=O)c2cc(S(=O)(=O)NCc3ccccc3)ccc2O)cc1OC`, the Potency was inconclusive: 20 µM [inhibitor, single point]. In the case of `Cn1nc(C(=O)Nc2ccc(S(=O)(=O)Nc3ncccn3)cc2)ccc1=O`, the Potency is reported as “inactive”. In the case of `COc1ccc(N2CCN(c3ccc([N+](=O)[O-])cc3Cl)CC2)cc1`, the Potency is reported as inconclusive: 20 µM [inhibitor, single point]. For `c1ccc2c(NC3C4CC5CC(C4)CC3C5)nc(N3CCOCC3)nc2c1` (centres undefined), the Potency was inconclusive: 3.16 µM [inhibitor, single point]. With `Cc1ccc(-c2nn(-c3ccccc3)cc2C=O)o1` the Potency was inconclusive: 31.6 µM [inhibitor, partial curve]. With `CCOC(=O)Cn1c(=O)oc2cc(S(=O)(=O)Nc3ccc(F)cc3)ccc21` the Potency was inconclusive: 0.631 µM [inhibitor, single point]. In the case of `Cc1ccccc1NC(=S)NC(=O)c1cc(-c2ccccc2)nc2ccccc12`, the Potency is reported as inconclusive: 7.08 µM [inhibitor, single point]. `O=C(O)Cc1sc(N/N=C\c2ccccc2)nc1-c1ccccc1` was tested, and the Potency was “inactive”. `CNC(=S)N1CCN(C(c2ccccc2)c2ccccc2)CC1` was tested, and the Potency was inconclusive: 39.8 µM [inhibitor, single point]. With `CC(=O)N(C)c1cccc([N+](=O)[O-])c1` the Potency was inconclusive: 1 µM [inhibitor, full curve, poor fit]. In the case of `Cc1cc(C)n(CC(=O)N/N=C/c2cc([N+](=O)[O-])ccc2O)n1`, the Potency is reported as inconclusive: 11.2 µM [inhibitor, partial curve, poor fit]. For `CCCN1CCC(=O)N(C(CSc2ccc(C)cc2)Cc2ccccc2)CC1` (centres undefined), the Potency was inconclusive: 0.0501 µM [inhibitor, full curve, poor fit]. With `CCOC(=O)C1(CC2CC2)CCN(Cc2cnc(N(C)C)s2)CC1` the Potency was inconclusive: 0.0794 µM [inhibitor, full curve, poor fit]. With `CCOc1ccc(NC2=C(OC)C(=O)c3ccccc3C2=O)cc1` the Potency was inconclusive: 14.1 µM [inhibitor, partial curve, poor fit]. With `COc1cccc(C(=O)OCC(=O)Nc2sc3c(c2C(N)=O)CCC3)c1O` the Potency was inconclusive: 16.8 µM [inhibitor, partial curve]. `O=C(Oc1c(CN2CCOCC2)cc(Cl)c2cccnc12)c1ccc(F)cc1` was tested, and the Potency was “inactive”. With `COc1ccccc1C(c1nnnn1C(C)(C)C)N1CCCc2ccccc21` (centres undefined) the Potency was inconclusive: 4.47 µM [inhibitor, partial curve]. `O=C(NCC1CCCO1)c1ccc2c(c1)C(=O)N(C1CCCCC1)C2=O` (centres undefined) was tested, and the Potency was inconclusive: 39.8 µM [inhibitor, single point]. For `N#Cc1ccc(CSc2nnc(NC(=O)C3CC(=O)N(c4ccc5c(c4)OCCO5)C3)s2)cc1` (centres undefined), the Potency was active: 14.1 µM. In the case of `O=[N+]([O-])c1ccc(SCc2c(F)cccc2Cl)nc1`, the Potency is reported as inconclusive: 28.2 µM [inhibitor, single point]. With `NC(=O)c1ccccc1NS(=O)(=O)c1ccccc1` the Potency was “inactive”. For `CC(=O)Nc1ccc(NC(=O)COc2ccc3c(c2)CCC3)cc1`, the Potency was inconclusive: 22.4 µM [inhibitor, single point]. For `Cc1ccccc1NC(=O)CSc1ccsc1[N+](=O)[O-]`, the Potency was inconclusive: 15.8 µM [inhibitor, partial curve]. `COC(=O)c1ccc(C(=O)OC)c(NC(=S)N2CCN(c3ccccc3F)CC2)c1` was tested, and the Potency was inconclusive: 3.16 µM [inhibitor, partial curve, poor fit]. With `O=C(O)c1cc(-c2cc3ccccc3o2)nn1-c1ccccc1` the Potency was “inactive”. For `Nc1ccc(N)c(C(=O)O)c1`, the Potency was active: 1.26 µM. `COC(=O)CNC(=O)COC(=O)c1ccc(Cl)nc1` was tested, and the Potency was inconclusive: 28.2 µM [inhibitor, partial curve, poor fit]. In the case of `O=c1[nH]c2cc3c(cc2cc1C(c1nnnn1Cc1ccccc1)N1CCN2CCCC2C1)OCCO3` (centres undefined), the Potency is reported as inconclusive: 5.01 µM [inhibitor, single point]. `Fc1cccc(-n2c(-c3ccco3)nc3nc4ccccc4nc32)c1` was tested, and the Potency was inconclusive: 10 µM [inhibitor, partial curve, poor fit]. For `COc1ccc([N+](=O)[O-])cc1NC(=O)C(C)OC(=O)/C=C/c1ccco1` (centres undefined), the Potency was inconclusive: 15.8 µM [inhibitor, single point]. With `CN1CCc2c(sc3c2C(=O)NC(c2ccccn2)N3)C1` (centres undefined) the Potency was inconclusive: 25.1 µM [inhibitor, single point]. In the case of `CCCCCn1c(NC(=O)c2ccco2)c(S(=O)(=O)c2ccc(C)cc2)c2nc3ccccc3nc21`, the Potency is reported as “inactive”. `O=C1c2c(O)cc(O)cc2O[C@H](c2ccc(O)c(O)c2)[C@@H]1O` was tested, and the Potency was inconclusive: 7.94 µM [inhibitor, partial curve]. `O=C(N/C=C/c1ccco1)NCc1ccccc1` was tested, and the Potency was inconclusive: 12.6 µM [inhibitor, partial curve]. In the case of `CN(Cc1ccccc1)S(=O)(=O)c1ccc(Cl)c(C(=O)NCc2ccc3c(c2)OCO3)c1`, the Potency is reported as inconclusive: 39.8 µM [inhibitor, single point]. With `CN=c1scc(C)n1/N=C/c1ccc(O)cc1` the Potency was inconclusive: 0.0251 µM [inhibitor, full curve, poor fit]. With `CS(=O)(=O)N(CC(=O)NCc1ccco1)c1ccc2c(c1)OCO2` the Potency was inconclusive: 44.7 µM [inhibitor, single point]. For `COc1cc(-c2c(C#N)c(N)nc3c2c(C)nn3-c2ccc(C)c(C)c2)cc(OC)c1OC`, the Potency was inconclusive: 20 µM [inhibitor, single point]. `CCOC(=O)C1CCCN(CCC(=O)Nc2ccccc2C)C1` (centres undefined) was tested, and the Potency was inconclusive: 22.4 µM [inhibitor, single point]. In the case of `OC(c1nc2ccc(F)cc2[nH]1)C(O)c1nc2ccc(F)cc2[nH]1` (centres undefined), the Potency is reported as inconclusive: 5.97 µM [inhibitor, single point]. For `CC1=NOC(=O)/C1=C\c1ccc(-c2cccc(Cl)c2)o1`, the Potency was inconclusive: 17.8 µM [inhibitor, single point]. In the case of `CC(=O)c1cccc(NC(=O)NNC(=O)CCC(=O)Nc2ccc(C)c(C)c2)c1`, the Potency is reported as inconclusive: 0.447 µM [inhibitor, full curve]. With `COc1ccc(NC2=CC(=O)CC(c3ccccc3)C2)cc1` (centres undefined) the Potency was inconclusive: 7.08 µM [inhibitor, single point]. For `Cc1cc(C(F)(F)F)nc(SCC(=O)c2cccc([N+](=O)[O-])c2)n1`, the Potency was inconclusive: 5.01 µM [inhibitor, single point]. With `O=[N+]([O-])c1ccc(Sc2cccc[n+]2[O-])c2nonc12` the Potency was inconclusive: 31.6 µM [inhibitor, single point]. In the case of `CCOC(=O)c1[nH]c2ccccc2c1NC(=O)c1ccc(S(=O)(=O)N(C)C)cc1`, the Potency is reported as inconclusive: 3.55 µM [inhibitor, single point]. With `COc1ccc(CC(=O)NNC(=O)c2ccco2)cc1` the Potency was inconclusive: 8.44 µM [inhibitor, single point]. `COc1cccc(/C=C(\CC(=O)O)c2nc3ccccc3s2)c1` was tested, and the Potency was “inactive”. `C[C@@H](c1ccccc1)N1C(=O)[C@H]2[C@@H]3[C@H](O)C=CC(=O)[C@H]3CC[C@H]2C1=O` was tested, and the Potency was inconclusive: 8.91 µM [inhibitor, single point]. For `Nc1ccc2c(c1)C(=O)N(CCCC(=O)O)C2=O`, the Potency was inconclusive: 39.8 µM [inhibitor, single point]. For `COc1cc(/C=N/NC(=O)c2cc(-c3cccn3C)n[nH]2)cc(OC)c1OC`, the Potency was “inactive”. With `Cc1nc2ccc3nc(NC(=O)C4COc5ccccc5O4)sc3c2s1` (centres undefined) the Potency was “inactive”.
Also: nearly all actives have a fitted effect of over 55% in size.
Potency is read from the fitted curve at half-maximal effect.
